Reference: PubChem BioAssay AID540276 (National Center for Advancing Translational Sciences (NCATS), 2011)
Hit rate of the full screen: of about 300,000 compounds, about 5,400 (1.8%) were called active. This list was built around the results that the source calls inconclusive (neither active nor inactive); the mix of calls is not that of the screen. Calls follow the shape of the full dose curve; tested in HEK293 cells. Potencies beside an inconclusive call are fits to weak or partial responses and may not hold up.

Assay: qHTS for inhibitors of binding or entry into cells for Marburg Virus
Conditions: Marburg virus pseudotyped entry inhibition, cell reporter; series mostly up to 37.8 µM
Potency is read from the fitted curve at half-maximal effect.

Compound	Potency
Cc1cc(C)c[n+](-c2nc3ccccc3nc2[N-]S(=O)(=O)c2ccc(Cl)cc2)c1	inactive
c1cncc(-c2nc3cc4ccccc4cc3[nH]2)c1	inconclusive: 18.3 µM [inhibitor, single point]
COc1ccccc1C(=O)NC(=S)Nc1ccc(S(=O)(=O)N2CCN(C)CC2)cc1	inconclusive: 25.1 µM [inhibitor, single point]
CCC(=O)c1cc(F)c(N2CCN(C(=O)Cc3ccccc3)CC2)cc1C	inconclusive: 25.1 µM [inhibitor, single point]
Cc1cccc(N2CCN(C(=O)CSc3nc4ccccc4nc3N3CC(C)OC(C)C3)CC2)c1C (stereo not given)	inconclusive: 14.1 µM [inhibitor, partial curve, poor fit]
CC(O)c1ccc(OCCN(C)c2ccccn2)cc1 (stereo not given)	inconclusive: 20 µM [inhibitor, partial curve, poor fit]
CCOC(=O)NC(=O)COC(=O)CNC(=O)c1ccc(OCC)c(OCC)c1	inactive
COC(=O)C1CCCN1S(=O)(=O)c1ccc2ccccc2c1 (stereo not given)	inconclusive: 29.1 µM [inhibitor, single point]
CCOC(=O)N1CCN(C(=O)c2cc3c(=O)n4ccccc4nc3s2)CC1	inactive
CCCc1nnc(SCC(=O)N2C(C)CCCC2C)n1CC1CCCO1 (stereo not given)	inconclusive: 11.2 µM [inhibitor, single point]
Cc1cccnc1N(C(=O)Nc1cccc(Cl)c1)C1=NCC(C)(C)S1	inactive
CCOC(=O)N/N=C(\C)c1cccs1	inconclusive: 17.8 µM [activator, single point]
CN(CC(=O)Nc1ccc(N2CCOCC2)cc1)C(=O)c1cc(F)c(F)cc1Cl	inactive
COc1ccc(CCNC(=O)CCc2cn(C)c3ccccc23)c(OC)c1	inconclusive: 7.08 µM [inhibitor, single point]
Cc1ccc(S(=O)(=O)N(C)c2ccc(OCC(=O)Nc3nc(-c4ccccc4)cs3)cc2)cc1	inconclusive: 15.8 µM [inhibitor, partial curve, poor fit]
CCn1c(=O)cc(SCC(=O)N(C)Cc2ccccc2)c2ccccc21	inconclusive: 29.1 µM [activator, single point]
NC(=O)CCC(NC(=O)c1ccc(Cl)cc1)C(=O)NCCc1ccc2c(c1)OCCO2 (stereo not given)	inconclusive: 17.8 µM [activator, single point]
O=C(CCCCCN1C(=O)CCC1=O)NCc1ccccc1	inconclusive: 35.5 µM [activator, partial curve, poor fit]
Cc1cc(C)c2[nH]c(=O)c(C(c3nnnn3CC3CCCO3)N3CCC(C)CC3)cc2c1 (stereo not given)	inconclusive: 6.51 µM [inhibitor, partial curve, poor fit]
O=C1NC(=S)NC(=O)C1=Cc1c(Cl)cccc1Cl	inactive
Cc1cccc(OCC(=O)Oc2ccc(Cl)cc2)c1	inactive
COc1cccc(NC(=O)c2cn(C3CCCCC3)c(=O)c3c2c2ccccc2n3C)c1	inactive
COc1ccc(C(CCN)Cc2ccccc2)cc1 (stereo not given)	inconclusive: 11.2 µM [inhibitor, partial curve, poor fit]
Cc1ccc(-c2ccc(=O)n(C(C)C(=O)Nc3ccccc3Cl)n2)cc1C (stereo not given)	inactive
O=c1c2ccccc2nc2n1C(CSc1ccc(F)cc1)CS2 (stereo not given)	inconclusive: 11.2 µM [activator, partial curve, poor fit]

Compound	Potency
COc1ccc(-c2nc3c(c(=O)[nH]c(=O)n3Cc3ccccc3)n2C)cc1	inactive
CCOc1ccc(S(=O)(=O)NCCC(=O)NCc2ccccn2)cc1	inactive
COc1ccc(C(=O)NC2CCCCCC2)cc1S(=O)(=O)Nc1ccc(Br)cc1	inconclusive: 0.562 µM [activator, full curve, poor fit]
CCOC(=O)c1sc2ncn(CC(=O)Nc3ccc(C)cc3C)c(=O)c2c1C	inactive
CCCn1nc(NS(=O)(=O)c2ccc(F)cc2)c2cc3ccccc3nc21	inactive
Cc1ccc(NC(=O)c2sc3nc(C)nc(N4CCN(c5ccccn5)CC4)c3c2C)c(C)c1	active: 11.2 µM
OCCOCCNc1ncnc2sc(-c3ccccc3)cc12	inconclusive: 17.8 µM [inhibitor, partial curve, poor fit]
O=[N+]([O-])c1cccc(CSc2nnc(Cc3ccccc3)n2-c2ccc(F)cc2)c1	inconclusive: 35.5 µM [inhibitor, single point]
CC1CCN(CC2C(=O)O[C@@H]3C[C@@]4(C)CCC[C@H](C)C4=C[C@H]23)CC(C)(C)C1 (stereo not given in full)	inconclusive: 5.62 µM [inhibitor, full curve, poor fit]
COc1ccc(N2C(=O)C3C4C=CC(c5ccccc5)(C3C2=O)C2C(=O)N(c3ccc(OC)cc3)C(=O)C42)cc1 (stereo not given)	inconclusive: 5.62 µM [activator, single point]
Cc1cccc(C(=O)NC(=S)Nc2c(C)n(C)n(-c3ccccc3)c2=O)c1	inactive
CCCN=C1N/C(=C\c2ccco2)C(=O)N1c1ccccc1	inactive
CCOC(=O)C1CCN(C(=O)Cn2cc(C(=O)C3CC3)c3ccccc32)CC1	inconclusive: 0.164 µM [inhibitor, full curve, poor fit]
C/C(Cc1ccccc1)=N\NC(=O)c1cccnc1	inactive
CCN(CC)C(=O)CSC1=C(C#N)C(c2cccs2)C=C(C)N1 (stereo not given)	active: 7.94 µM
COc1ccccc1Nc1ncnc2nc[nH]c12	inactive
Cc1ccc(C(=O)NC2CCCC2)cc1S(=O)(=O)N1CCCCC1	inactive
CCOC(=O)/C(C#N)=C(\N)C(C)C(=O)Nc1ccccn1 (stereo not given)	inconclusive: 2.51 µM [activator, partial curve]
Cc1ccc(NC(=O)c2cc3c(=O)[nH]c4ccccc4c3n2C)cc1F	inactive
COC(=O)c1ccccc1C(=O)N1CC(O)CO1 (stereo not given)	inactive
O=C(Nc1ccc(C(=O)O)cc1)/C(=C\c1ccco1)NC(=O)c1ccccc1	inactive
O=C1/C(=C/c2cccnc2)SC(=S)N1C1CCS(=O)(=O)C1 (stereo not given)	inconclusive: 35.5 µM [inhibitor, single point]
NS(=O)(=O)c1ccc(CCNC(=O)c2ccc3ccccc3n2)cc1	inactive
COc1ccccc1NC(=O)Nc1nc(CC(=O)N2CCN(c3ccccc3)CC2)cs1	inactive
CCOC(=O)c1sc(NC(=O)CS(=O)(=O)c2ccc(C)cc2)nc1C	inconclusive: 7.08 µM [inhibitor, partial curve, poor fit]

Compound	Potency
O=C1C=CC(=O)c2c(O)c(CO)c(CO)c(O)c21	inconclusive: 0.251 µM [inhibitor, full curve, poor fit]
O=[N+]([O-])c1cc2c(cc1/C=N/NS(=O)(=O)c1ccc(Br)cc1)OCO2	inconclusive: 4.47 µM [inhibitor, full curve, poor fit]
COc1ccc(CNC(=O)CSc2nnnn2C)cc1OC	inconclusive: 25.1 µM [inhibitor, single point]
CCCn1c(SCC(=O)NCCc2ccccc2)nnc1C(C)C	inactive
CCN(CC)CCNc1nc(SC)nc2sc3c(c12)CCN(C)C3	active: 7.08 µM
CCc1ccccc1N(CC(=O)N1CCN(c2ccc(F)cc2)CC1)S(C)(=O)=O	inconclusive: 32.6 µM [inhibitor, single point]
C/C(=N\NC(=S)NC1CCCCC1)c1ccc(C#N)cc1	inactive
COc1ccc(NC(=O)CSc2nnc(Cc3cccn3C)n2CCc2ccccc2)c(OC)c1	inconclusive: 0.73 µM [inhibitor, full curve, poor fit]
Cc1ccccc1CSCCNC(=S)Nc1ccccc1	inconclusive: 35.5 µM [inhibitor, partial curve, poor fit]
Cc1cc(C(=O)NCc2cccnc2)no1	inactive
Cc1cccc(Oc2c([N+](=O)[O-])c(=O)n(C)c3ccccc23)c1	inconclusive: 15.8 µM [inhibitor, single point]
Cn1c(SCC(=O)NCC2CCCO2)ncc(C(=O)Nc2ccccc2)c1=O (stereo not given)	inconclusive: 35.5 µM [inhibitor, single point]
O=C(Nc1ccccc1)c1cc([N+](=O)[O-])ccc1N1CCCCC1	inconclusive: 11.2 µM [inhibitor, partial curve, poor fit]
O=C(O)c1ccc(NS(=O)(=O)/C=C/c2ccccc2)cc1	inactive
CC(N)(C(=O)O)c1ccc(C(=O)O)cc1 (stereo not given)	inconclusive: 0.0891 µM [activator, full curve, poor fit]
O=C(Nc1ccncc1)c1ccc2ccccc2c1	inactive
COc1ccc(S(=O)(=O)Nc2cc(-c3cn4ccccc4n3)ccc2C)cc1	inactive
CC(=O)NC(Cc1ccc(C)cc1)C(=O)NC1CCN(S(=O)(=O)c2ccccc2)CC1 (stereo not given)	inactive
O=C(OCc1cncs1)c1ccccc1Cl	inactive
CC(=O)Nc1sc(N/N=C\c2ccco2)nc1-c1cccs1	inactive
Oc1oc(-c2ccccc2)nc1C=NCc1ccccc1	inconclusive: 2.59 µM [activator, single point]
CCCCOc1ccc(C(=S)N2CCC(C(N)=O)CC2)cc1	inconclusive: 0.562 µM [activator, full curve, poor fit]
O=C(NC(Nc1cc(C(F)(F)F)ccc1Cl)C(=O)c1ccccc1)c1ccccc1 (stereo not given)	inconclusive: 1.41 µM [activator, partial curve, poor fit]
CC(C)(C)c1ccc(Oc2cccc(C3CC(=O)C(C4NCCc5ccccc54)C(=O)C3n3cncn3)c2)cc1 (stereo not given)	inactive
CC1Cc2ccccc2N1C(=O)CN1C(=O)C(=O)N(Cc2ccccc2)C1=O (stereo not given)	inactive
